Taken from: PubChem BioAssay AID1259308 (NCATS, 2017)
Aim: 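Candidate targets for better recombinant protein yield in mammalian cells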 (primary screen). System: human HEK293 embryonic kidney cells stably expressing firefly luciferase (HEK-CMV-Luc2-Hygro). Knock-down reagent: single siRNA against human genes, 0.8 pmol siRNA per well. Time to read-out: 72 h. Read-out: 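Reporter luminescence and viable-cell signal on separate replicate plates, given as percent of non-targeting control and median/MAD z-scores, plus per-cell luciferase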. Direction: total luciferase, z-score: higher = more reporter protein produced. Active means: 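Active when the median/MAD z-score for overall luciferase is greater than 3; a gene was taken forward for validation with new siRNAs if at least two of its three siRNAs passed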. Calls: active = raised luciferase; inactive = no rise.
In all, the deposit lists about 59,000 reagents; this is a part drawn at random. About 1,510 of all reagents (2.6%) were called active. 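Calls use total luciferase alone and ignore viability, so some active siRNAs may act by altering cell number.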 Entries without a mark were called inactive. The numbers tell different reagents against one gene apart. Further read-outs or replicates are left out here.

no.	gene knocked down	siRNA no.	total luciferase, z-score
1	AKAP14 (A-kinase anchoring protein 14)	1	0.246
2	AKAP14 (A-kinase anchoring protein 14)	2	0.908
3	AKAP14 (A-kinase anchoring protein 14)	3	-0.206
4	SMYD1 (SET and MYND domain containing 1)	1	-0.161
5	SMYD1 (SET and MYND domain containing 1)	2	0.712
6	SMYD1 (SET and MYND domain containing 1)	3	-0.334
7	FSCN1 (fascin actin-bundling protein 1)	1	0.842
8	FSCN1 (fascin actin-bundling protein 1)	2	-2.2
9	FSCN1 (fascin actin-bundling protein 1)	3	-0.215
10	HMGB1 (high mobility group box 1)	1	1.59
11	HMGB1 (high mobility group box 1)	2	0.459
12	HMGB1 (high mobility group box 1)	3	0.357
13	PLA2G2C (phospholipase A2 group IIC)	1	0.804
14	PLA2G2C (phospholipase A2 group IIC)	2	-0.482
15	PLA2G2C (phospholipase A2 group IIC)	3	-0.0119
16	NUP43 (nucleoporin 43)	1	0.581
17	NUP43 (nucleoporin 43)	2	-0.0632
18	NUP43 (nucleoporin 43)	3	-1.15
19	ORMDL3 (ORMDL sphingolipid biosynthesis regulator 3)	1	2
20	ORMDL3 (ORMDL sphingolipid biosynthesis regulator 3)	2	-1.24
21	ORMDL3 (ORMDL sphingolipid biosynthesis regulator 3)	3	0.86
22	ZSCAN5A (zinc finger and SCAN domain containing 5A)	1	1.37
23	ZSCAN5A (zinc finger and SCAN domain containing 5A)	2	1.04
24	ZSCAN5A (zinc finger and SCAN domain containing 5A)	3	0.68
25	SFTPC (surfactant protein C)	1	-0.745
26	SFTPC (surfactant protein C)	2	1.2
27	SFTPC (surfactant protein C)	3	-0.612
28	PSMC3IP (PSMC3 interacting protein)	1	-0.0149
29	PSMC3IP (PSMC3 interacting protein)	2	-0.887
30	PSMC3IP (PSMC3 interacting protein)	3	-0.101
31	MXD3 (MAX dimerization protein 3)	1	-0.552
32	MXD3 (MAX dimerization protein 3)	2	-0.45
33	MXD3 (MAX dimerization protein 3)	3	2.62
34	KLF16 (KLF transcription factor 16)	1	0.137
35	KLF16 (KLF transcription factor 16)	2	1.26
36	KLF16 (KLF transcription factor 16)	3	1.9
37	ZNF683 (zinc finger protein 683)	1	1.69
38	ZNF683 (zinc finger protein 683)	2	-0.474
39	ZNF683 (zinc finger protein 683)	3	0.857
40	ARHGAP45 (Rho GTPase activating protein 45)	1	-0.88
41	ARHGAP45 (Rho GTPase activating protein 45)	2	-0.928
42	ARHGAP45 (Rho GTPase activating protein 45)	3	0.456

Laid out differently: 12 of the entries above
| gene knocked down | siRNA no. | total luciferase, z-score |
| --- | --- | --- |
| MXD3 (MAX dimerization protein 3) | 1 | -0.552 |
| MXD3 (MAX dimerization protein 3) | 2 | -0.45 |
| MXD3 (MAX dimerization protein 3) | 3 | 2.62 |
| KLF16 (KLF transcription factor 16) | 1 | 0.137 |
| KLF16 (KLF transcription factor 16) | 2 | 1.26 |
| KLF16 (KLF transcription factor 16) | 3 | 1.9 |
| ZNF683 (zinc finger protein 683) | 1 | 1.69 |
| ZNF683 (zinc finger protein 683) | 2 | -0.474 |
| ZNF683 (zinc finger protein 683) | 3 | 0.857 |
| ARHGAP45 (Rho GTPase activating protein 45) | 1 | -0.88 |
| ARHGAP45 (Rho GTPase activating protein 45) | 2 | -0.928 |
| ARHGAP45 (Rho GTPase activating protein 45) | 3 | 0.456 |

The list goes on:
no.	gene knocked down	siRNA no.	total luciferase, z-score
43	SAMSN1 (SAM domain, SH3 domain and nuclear localization signals 1)	1	0.419
44	SAMSN1 (SAM domain, SH3 domain and nuclear localization signals 1)	2	0.307
45	SAMSN1 (SAM domain, SH3 domain and nuclear localization signals 1)	3	-0.419
46	SAMSN1 (SAM domain, SH3 domain and nuclear localization signals 1)	4	0.623
47	SAMSN1 (SAM domain, SH3 domain and nuclear localization signals 1)	5	0.89
48	SAMSN1 (SAM domain, SH3 domain and nuclear localization signals 1)	6	1.71
49	JCAD (junctional cadherin 5 associated)	1	-0.318
50	JCAD (junctional cadherin 5 associated)	2	1.61
51	JCAD (junctional cadherin 5 associated)	3	-0.357
52	GLRX3 (glutaredoxin 3)	1	0.179
53	GLRX3 (glutaredoxin 3)	2	0.171
54	GLRX3 (glutaredoxin 3)	3	0.00329
55	FBXO25 (F-box protein 25)	1	0.231
56	FBXO25 (F-box protein 25)	2	1.16
57	FBXO25 (F-box protein 25)	3	0.223
58	ODF2L (outer dense fiber of sperm tails 2 like)	1	1.96
59	ODF2L (outer dense fiber of sperm tails 2 like)	2	1.78
60	ODF2L (outer dense fiber of sperm tails 2 like)	3	2.04
61	CCL7 (C-C motif chemokine ligand 7)	1	0.347
62	CCL7 (C-C motif chemokine ligand 7)	2	0.474
63	CCL7 (C-C motif chemokine ligand 7)	3	-0.425
64	RAB27A (RAB27A, member RAS oncogene family)	1	-0.517
65	RAB27A (RAB27A, member RAS oncogene family)	2	0.121
66	RAB27A (RAB27A, member RAS oncogene family)	3	-0.529
67	HSBP1L1 (heat shock factor binding protein 1 like 1)	1	-2.16
68	HSBP1L1 (heat shock factor binding protein 1 like 1)	2	3.22 (active)
69	HSBP1L1 (heat shock factor binding protein 1 like 1)	3	-0.388
70	CHID1 (chitinase domain containing 1)	1	0.476
71	CHID1 (chitinase domain containing 1)	2	-0.151
72	CHID1 (chitinase domain containing 1)	3	1.83
73	SIK2 (salt inducible kinase 2)	1	2.09
74	SIK2 (salt inducible kinase 2)	2	3.12 (active)
75	SIK2 (salt inducible kinase 2)	3	0.757
